According to publication PMC7886320:
Results are given in words; binding and its absence hold for the method and conditions named. Tags and fused reporters may be left off the sequences shown.

Molecular target: T1, His-tagged ExoU (Pseudomonas aeruginosa exotoxin U) (Pseudomonas aeruginosa), O34208
T1 chain: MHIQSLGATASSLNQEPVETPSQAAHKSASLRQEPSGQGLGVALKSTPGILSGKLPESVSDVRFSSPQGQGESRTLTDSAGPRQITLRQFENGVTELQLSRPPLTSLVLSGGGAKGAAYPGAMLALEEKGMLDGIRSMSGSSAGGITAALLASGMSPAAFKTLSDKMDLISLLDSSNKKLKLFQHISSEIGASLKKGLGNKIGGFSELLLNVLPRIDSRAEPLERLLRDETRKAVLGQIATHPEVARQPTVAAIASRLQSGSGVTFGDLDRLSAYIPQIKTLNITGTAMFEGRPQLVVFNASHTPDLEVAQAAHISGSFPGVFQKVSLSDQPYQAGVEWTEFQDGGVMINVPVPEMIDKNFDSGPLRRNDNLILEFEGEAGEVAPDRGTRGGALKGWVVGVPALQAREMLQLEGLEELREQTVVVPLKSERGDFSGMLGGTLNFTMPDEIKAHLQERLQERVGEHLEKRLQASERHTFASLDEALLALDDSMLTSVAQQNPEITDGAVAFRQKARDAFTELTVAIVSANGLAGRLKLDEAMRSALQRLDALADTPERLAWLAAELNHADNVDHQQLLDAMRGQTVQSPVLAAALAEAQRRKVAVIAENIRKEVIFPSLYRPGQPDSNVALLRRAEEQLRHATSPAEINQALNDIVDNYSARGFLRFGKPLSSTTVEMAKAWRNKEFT
Test: SEC; purified His-ExoU alone, with reference to a series of molecular mass standards; 16/600 Superdex 200 in 20 mM Tris-HCl pH 8.2, 100 mM NaCl, 10% (v/v) glycerol; no PIP2; both purified
Conditions: remark: other sources report otherwise

B1: His-tagged ExoU (Pseudomonas aeruginosa exotoxin U), O34208 1-687 (enzyme)
chain: T1 chain
  binding: no binding
